Laboratory results: PubChem BioAssay AID2685 (National Center for Advancing Translational Sciences (NCATS), 2010)
This is one part of the list. These are further read-outs of the screen, such as a control signal, another cell line or another target. No call is given for them. Compounds called inactive in the main read-out are mostly missing here. Words in brackets tell the shape of the fitted curve; partial curves, single points and poor fits give uncertain potencies.

Test: qHTS Assay for Lipid Storage Modulators in Drosophila S3 Cells;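 for cell number change: cells counted by Cell Tracker Red CMTPX staining in the red channel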
Settings: BODIPY lipid droplet fluorescence, 18-24 h; for cell number change: measured here: cell count max response, cells fed with added oleic acid
Method in brief: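 Drosophila S3 cells got compounds at several concentrations plus oleic acid (400 uM solution). Laser-scanning cytometry with 488 nm excitation read lipid droplets at 500-530 nm and cells at 575-640 nm. Percent activity was relative to 20 uM Triacsin C.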

[1] = measured here: lipid fluorescence (Fed channel) AC50, cells fed with added oleic acid
[2] = measured here: cell number channel AC50, cells fed with added oleic acid

SMILES | cell number change [%] | AC50 [1] | AC50 [2]
CCOC(=O)N1CCN(Cc2nc3c(c(=O)[nH]c(=O)n3C)n2Cc2ccccc2C)CC1 | -5.4 | – | –
Clc1cccc(CNc2nc(-c3cccnc3)nc3ccccc23)c1 | 6.05 | 3.26 µM [rising, single point] | –
COc1ccc(NC(=O)CSc2nnc(Cc3ccccc3)c(=O)n2N)cc1OC | 19.7 | 1.46 µM [rising, full curve, poor fit] | –
N#Cc1nc(-c2cccc(Cl)c2)oc1NCc1cccnc1 | 33.6 | – | 13 µM [rising, single point]
O=C(NNC(=O)C1CC=CCC1C(=O)O)c1ccc(Cl)cc1 (centres undefined) | 4.19 | 2.31 µM [falling, partial curve] | 3.66 µM [falling, single point]
COc1ccc(C(=O)N2CCCC(CNC(=O)c3ccc(F)cc3)C2)cc1OC (centres undefined) | 6.08 | 29.1 µM [rising, single point] | –
O=C1c2ccccc2C(Nc2ccc3nc(-c4cccnc4)[nH]c3c2)N1Cc1ccco1 (centres undefined) | 2.72 | 0.731 µM [rising, full curve, poor fit] | –
COc1cc(NC(=O)C2CCN(S(=O)(=O)c3ccc4[nH]c(=O)oc4c3)CC2)cc(OC)c1 | – | 0.259 µM [rising, partial curve, poor fit] | –
CCOC(=O)N1CCN(C(=O)COCc2cc(-c3ccc4c(c3)OCO4)on2)CC1 | 21.8 | 23.1 µM [rising, single point] | –
CCCC(NS(=O)(=O)c1ccc(OC)cc1)C(=O)O (centres undefined) | -2.5 | 6.51 µM [falling, single point] | –
COc1cc(SC#N)ccc1N=Cc1c(C)[nH]n(-c2ccc(C)c(C)c2)c1=O | -88.2 | 23.1 µM [falling, single point] | 18.4 µM [falling, partial curve]
CN(Cc1ccon1)C(=O)C1CCC(=O)N(CCc2ccc(Cl)cc2)C1 (centres undefined) | 16.5 | – | –
Cc1onc(-c2ccccc2)c1-c1n[nH]c(=S)n1-c1ccc(C(=O)O)cc1 | 4.2 | 23.1 µM [falling, partial curve] | –
CC(C)Oc1ccc(CN2CCCC(CO)(Cc3ccccc3)C2)cc1CO (centres undefined) | 6.2 | – | 4.61 µM [rising, partial curve, poor fit]
Cc1ccc(C2=NN(C(=O)CSc3nc4ncc(Cl)cc4[nH]3)C(c3ccco3)C2)cc1 (centres undefined) | 80.4 | – | 14.6 µM [rising, single point]
O=C(Nc1ccc(F)cc1F)NC1CCCCCCC1 | 2.31 | 3.26 µM [rising, single point] | –
CCC(C)n1cnc2c(c1=O)c1nc3ccccc3nc1n2Cc1ccccc1OC (centres undefined) | 8.46 | 0.82 µM [rising, full curve] | –
COc1ccc(-n2c(=O)c(CCC(=O)NCCc3ccccc3F)nc3ccccc32)cc1 | – | 5.8 µM [falling, partial curve] | –
O=C(NCC1CCCO1)C1CCC(=O)N1Cc1ccc(F)cc1 (centres undefined) | 30.5 | – | 23.1 µM [rising, single point]
CCOC(=O)C(C(=O)OCC)C1OC(=O)c2cc3c(cc21)C(=O)OC3C(C(=O)OCC)C(=O)OCC (centres undefined) | -10.1 | 0.206 µM [falling, full curve] | –

Reformatted as comma-separated lines: two of the compounds above
SMILES,cell number change [%],AC50 [1],AC50 [2]
CC(C)Oc1ccc(CN2CCCC(CO)(Cc3ccccc3)C2)cc1CO (centres undefined),6.2,–,"4.61 µM [rising, partial curve, poor fit]"
Cc1ccc(C2=NN(C(=O)CSc3nc4ncc(Cl)cc4[nH]3)C(c3ccco3)C2)cc1 (centres undefined),80.4,–,"14.6 µM [rising, single point]"

(cont.)

SMILES | cell number change [%] | AC50 [1] | AC50 [2]
Cc1cc(Cl)c(OCCCn2ccnc2)c(Br)c1 | – | 2.59 µM [rising, partial curve] | –
COc1ccc(-c2cc(C(F)(F)F)nc(N3CCCCC3)n2)cc1OC | -4.46 | – | 0.92 µM [rising, full curve, poor fit]
O=C(Nc1ccon1)c1sc2cc(Cl)ccc2c1Cl | 3.78 | 29.1 µM [falling, single point] | –
COc1cc(C)c(Br)cc1S(=O)(=O)N1CCCC1 | 1.42 | 0.164 µM [falling, full curve, poor fit] | –
CCN(CC)S(=O)(=O)c1ccc(N=Nc2c(C)[nH]n(C(N)=S)c2=O)cc1 | -51.9 | 13 µM [falling, partial curve] | 25.9 µM [falling, partial curve, poor fit]
CC(=O)C1=C(C)NC(SCC(N)=O)=C(C#N)C1C (centres undefined) | -17.8 | 6.51 µM [rising, single point] | –
COc1ccc(C=NCC2OCCc3ccccc32)cc1OC (centres undefined) | 75 | 0.82 µM [falling, single point] | 29.1 µM [rising, single point]
CCOC(=O)N1CCN(Cc2nc3c(c(=O)n(C)c(=O)n3C)n2Cc2ccccc2)CC1 | – | 29.1 µM [rising, single point] | –
Cn1cc(S(=O)(=O)N2CCc3ccccc32)cc1C(=O)Nc1ccc(Cl)cc1 | 29.4 | – | –
COc1ccc(C(C(=O)NC2CCCC2)N(C(=O)c2ccco2)c2cc3c(cc2C(C)=O)OCO3)cc1OC (centres undefined) | -2.5 | 18.4 µM [falling, partial curve, poor fit] | –
O=C(NCC1CCCO1)c1cccc(Oc2ccc([N+](=O)[O-])cc2)c1 (centres undefined) | 20.1 | 6.51 µM [rising, single point] | –
COc1cccc(-c2c(C(=O)N/N=C/c3ccc(C)o3)nnn2-c2nonc2N)c1 | 23.3 | 0.146 µM [rising, full curve, poor fit] | –
CSCC[C@H](NC(=O)OC(C)(C)C)C(=O)NCC1CCC(C(=O)N[C@@H](Cc2ccccc2)C(=O)O)CC1 (some centres undefined) | – | 6.51 µM [falling, single point] | –
CCc1ccc(NC(=O)C2CCN(c3c(N4CCCC4)c(=O)c3=O)CC2)cc1 | 11.3 | – | –
COc1cccc(-n2cc(C(=O)O)c3ccccc3c2=O)c1 | -13.4 | 25.9 µM [falling, partial curve, poor fit] | –
Cc1ccc(S(=O)(=O)N2CCOCC2)cc1NC(=O)COC(=O)c1n[nH]c(=O)c2ccccc12 | 94.7 | 29.1 µM [rising, partial curve] | 18.4 µM [rising, single point]
O=C(OCc1cc(Cl)ccc1OC(F)F)c1ccc([N+](=O)[O-])o1 | 10.1 | – | –
O=C(CCCCCn1c(=S)[nH]c2ccccc2c1=O)N1CCOCC1 | -28.1 | 29.1 µM [falling, single point] | –
Cc1cccc(OCC(=O)N/N=C2/SCC(=O)N2Cc2ccco2)c1 | 12.3 | – | –
CCc1ccc(CNC(=O)CCn2nc(C)c3c(C)n(-c4ccccc4)nc3c2=O)cc1 | 10.5 | 1.46 µM [rising, full curve, poor fit] | 0.0651 µM [rising, full curve, poor fit]

SMILES | cell number change [%] | AC50 [1] | AC50 [2]
Cc1ccc(S(=O)(=O)/N=C(/Nc2c(C)n(C)n(-c3ccccc3)c2=O)c2ccccc2)cc1 | – | 29.1 µM [rising, single point] | 2.31 µM [rising, partial curve]
O=C1NC(Cc2c[nH]c3ccccc23)C(=O)N1c1ccc(F)cc1 (centres undefined) | 48.7 | – | 16.4 µM [rising, single point]
COc1cccc(NC(=S)N(CCc2c(C)[nH]c3ccccc23)Cc2ccco2)c1 | 17.8 | 1.03 µM [rising, partial curve] | –
Cc1nc([N+](=O)[O-])cn1CC(=O)c1ccccc1 | 9.65 | – | –
COc1cccc(Nc2ncccc2C(=O)NCc2ccccc2)c1 | – | 6.51 µM [rising, single point] | 6.51 µM [rising, single point]
CS(=O)(=O)c1ccc(NC(=O)CN2C(=O)C3CCCCC3C2=O)cc1 (centres undefined) | -14.8 | 29.1 µM [falling, single point] | –
O=c1cc(Cl)[nH]c(=O)n1Cc1ccc(F)cc1 | -21.5 | – | –
CC(=O)c1ccc(OCc2cc(C(=O)N(C)Cc3ncc(C)[nH]3)no2)cc1 | 25.4 | – | –
CC(C)CC(=O)NC(=S)NCc1ccccc1 | 18.1 | 5.17 µM [rising, partial curve, poor fit] | –
Cc1cc(C)cc(Oc2nc(C(F)(F)F)nc3ccccc23)c1 | -36.4 | – | 29.1 µM [falling, single point]
COCCNC(=O)Nc1ccc2c(c1)N(C)C(=O)c1ccccc1S2 | -15.1 | 2.06 µM [rising, partial curve] | –
CCOC(=O)[C@@H]1[C@H]2COc3ccccc3[C@H]2N2C(=O)N(c3ccc(C(F)(F)F)cc3)C(=O)[C@]12C | – | 4.11 µM [falling, full curve] | –
COc1ccc(CNC(=O)CSc2nnc3c(n2)[nH]c2ccc(F)cc23)cc1 | 23.5 | – | –
COc1ccc(OC)c(-c2nnc(SCC(=O)N3CCCc4ccccc43)o2)c1 | -14.2 | – | –
COc1cccc(C(=O)Nc2cccc(-c3nnc(-c4ccco4)o3)c2)c1 | 70.4 | 4.61 µM [falling, single point] | 5.17 µM [rising, full curve]
CCn1c(SCC(=O)Nc2oc(C)c3c(C)n[nH]c(=O)c23)nc2sc(C)c(C)c2c1=O | – | – | 0.259 µM [rising, full curve]
O=C(COC(=O)C1CC2C=CC1C2)Nc1cccc(S(=O)(=O)N2CCOCC2)c1 (centres undefined) | -19.7 | 0.461 µM [falling, full curve, poor fit] | –
CN(C)c1ccc(C=C2C(=O)OC(C)(C(C)(C)C)OC2=O)cc1 (centres undefined) | 11.3 | 6.51 µM [falling, single point] | –
CCOC(=O)N1CCC(NC(=O)CCC(=O)N2CC(C)Oc3ccccc32)CC1 (centres undefined) | 7.99 | 10.3 µM [rising, single point] | –
S=c1[nH]nc(-c2ccco2)n1/N=C/c1ccccc1 | -14.7 | 29.1 µM [falling, single point] | –
